The supplement of paper PMC10849652
The list shows a part of the results.

Chains of the proteins cited; added tags and fusions are not shown. Lines headed by an entry give the natural chain unless they say otherwise; changes in a name come on top.
UniProt Q86UB9: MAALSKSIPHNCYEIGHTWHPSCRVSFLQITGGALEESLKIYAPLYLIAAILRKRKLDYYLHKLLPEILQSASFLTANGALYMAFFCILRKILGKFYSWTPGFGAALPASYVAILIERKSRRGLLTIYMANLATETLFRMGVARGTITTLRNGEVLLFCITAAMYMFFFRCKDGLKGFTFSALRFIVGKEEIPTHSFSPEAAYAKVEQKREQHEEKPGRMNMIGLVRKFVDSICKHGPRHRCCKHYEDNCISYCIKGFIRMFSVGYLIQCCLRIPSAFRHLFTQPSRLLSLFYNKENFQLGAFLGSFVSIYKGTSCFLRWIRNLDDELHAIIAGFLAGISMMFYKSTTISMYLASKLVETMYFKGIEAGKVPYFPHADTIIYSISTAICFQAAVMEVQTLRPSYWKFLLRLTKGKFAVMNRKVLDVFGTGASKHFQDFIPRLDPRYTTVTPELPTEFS
UniProt Q9NS93: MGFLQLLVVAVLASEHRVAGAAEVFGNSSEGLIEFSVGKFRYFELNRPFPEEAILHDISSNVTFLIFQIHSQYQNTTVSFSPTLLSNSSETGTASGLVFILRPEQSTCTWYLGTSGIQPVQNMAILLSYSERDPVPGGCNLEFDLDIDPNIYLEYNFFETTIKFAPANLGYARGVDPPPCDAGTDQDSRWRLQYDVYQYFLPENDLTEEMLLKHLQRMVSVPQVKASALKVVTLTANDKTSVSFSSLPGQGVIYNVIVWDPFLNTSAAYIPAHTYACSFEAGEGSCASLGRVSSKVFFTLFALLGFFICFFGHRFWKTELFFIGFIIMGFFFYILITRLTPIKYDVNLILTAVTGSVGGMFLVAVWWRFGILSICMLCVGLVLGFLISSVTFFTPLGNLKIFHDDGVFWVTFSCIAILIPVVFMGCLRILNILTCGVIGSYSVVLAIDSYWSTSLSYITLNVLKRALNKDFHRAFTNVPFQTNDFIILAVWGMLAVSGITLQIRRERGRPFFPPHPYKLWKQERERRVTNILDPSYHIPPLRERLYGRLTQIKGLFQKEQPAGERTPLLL
UniProt O15321, whole entry, looked up: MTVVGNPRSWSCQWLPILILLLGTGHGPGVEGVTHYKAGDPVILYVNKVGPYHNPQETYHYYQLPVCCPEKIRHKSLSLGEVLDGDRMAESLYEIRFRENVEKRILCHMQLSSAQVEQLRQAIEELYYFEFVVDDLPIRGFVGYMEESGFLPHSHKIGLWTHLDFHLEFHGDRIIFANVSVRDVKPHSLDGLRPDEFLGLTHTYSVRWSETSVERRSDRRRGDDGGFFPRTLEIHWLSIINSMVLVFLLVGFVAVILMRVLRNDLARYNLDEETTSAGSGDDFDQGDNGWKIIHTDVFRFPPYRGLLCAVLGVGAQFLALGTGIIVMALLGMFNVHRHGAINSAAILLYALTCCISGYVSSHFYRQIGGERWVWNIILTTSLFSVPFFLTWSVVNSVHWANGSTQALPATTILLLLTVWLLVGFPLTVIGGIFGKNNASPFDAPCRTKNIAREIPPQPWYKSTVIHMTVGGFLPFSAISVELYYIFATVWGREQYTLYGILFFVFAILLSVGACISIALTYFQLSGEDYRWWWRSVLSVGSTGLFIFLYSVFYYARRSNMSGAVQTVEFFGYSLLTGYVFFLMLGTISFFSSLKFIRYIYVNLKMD
UniProt Q9NWX6: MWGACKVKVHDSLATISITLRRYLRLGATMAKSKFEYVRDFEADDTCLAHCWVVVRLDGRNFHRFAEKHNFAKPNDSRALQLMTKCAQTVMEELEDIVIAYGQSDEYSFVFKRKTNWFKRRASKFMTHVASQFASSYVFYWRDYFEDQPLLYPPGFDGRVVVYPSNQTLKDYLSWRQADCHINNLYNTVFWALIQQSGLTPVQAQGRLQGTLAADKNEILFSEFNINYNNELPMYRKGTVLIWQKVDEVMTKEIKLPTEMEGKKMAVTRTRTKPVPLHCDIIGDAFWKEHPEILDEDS
UniProt P04183: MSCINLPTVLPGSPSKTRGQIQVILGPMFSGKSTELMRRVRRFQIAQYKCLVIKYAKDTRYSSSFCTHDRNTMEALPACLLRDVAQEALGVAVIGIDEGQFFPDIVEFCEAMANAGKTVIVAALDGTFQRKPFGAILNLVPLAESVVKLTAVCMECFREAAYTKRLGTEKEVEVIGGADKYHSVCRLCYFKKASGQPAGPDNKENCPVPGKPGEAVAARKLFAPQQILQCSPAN
UniProt Q8TDI8: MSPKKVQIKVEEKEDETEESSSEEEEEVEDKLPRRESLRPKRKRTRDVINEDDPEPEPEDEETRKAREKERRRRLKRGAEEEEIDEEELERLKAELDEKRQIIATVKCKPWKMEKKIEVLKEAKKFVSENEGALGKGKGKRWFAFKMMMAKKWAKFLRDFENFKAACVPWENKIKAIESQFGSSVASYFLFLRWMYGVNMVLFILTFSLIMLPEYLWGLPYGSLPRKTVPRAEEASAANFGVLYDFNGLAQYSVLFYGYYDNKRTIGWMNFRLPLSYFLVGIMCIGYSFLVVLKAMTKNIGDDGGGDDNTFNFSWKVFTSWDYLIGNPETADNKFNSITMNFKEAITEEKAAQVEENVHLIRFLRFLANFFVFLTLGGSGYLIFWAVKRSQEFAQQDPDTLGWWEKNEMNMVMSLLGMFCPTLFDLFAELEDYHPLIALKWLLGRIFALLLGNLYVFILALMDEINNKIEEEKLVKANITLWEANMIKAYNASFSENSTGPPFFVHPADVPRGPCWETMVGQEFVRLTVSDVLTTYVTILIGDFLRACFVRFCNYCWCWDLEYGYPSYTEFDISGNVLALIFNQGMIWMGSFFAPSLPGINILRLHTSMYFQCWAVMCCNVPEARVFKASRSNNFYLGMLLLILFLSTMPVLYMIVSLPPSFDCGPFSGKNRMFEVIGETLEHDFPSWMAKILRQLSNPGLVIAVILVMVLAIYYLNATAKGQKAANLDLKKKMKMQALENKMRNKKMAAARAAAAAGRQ
UniProt O00142: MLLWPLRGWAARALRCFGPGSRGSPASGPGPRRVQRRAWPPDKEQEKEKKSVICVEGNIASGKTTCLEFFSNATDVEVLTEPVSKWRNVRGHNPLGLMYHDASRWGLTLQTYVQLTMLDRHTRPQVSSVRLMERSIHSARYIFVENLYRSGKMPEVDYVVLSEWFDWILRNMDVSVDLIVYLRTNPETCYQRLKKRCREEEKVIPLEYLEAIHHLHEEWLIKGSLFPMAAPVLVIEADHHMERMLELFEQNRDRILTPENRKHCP
UniProt Q9Y490: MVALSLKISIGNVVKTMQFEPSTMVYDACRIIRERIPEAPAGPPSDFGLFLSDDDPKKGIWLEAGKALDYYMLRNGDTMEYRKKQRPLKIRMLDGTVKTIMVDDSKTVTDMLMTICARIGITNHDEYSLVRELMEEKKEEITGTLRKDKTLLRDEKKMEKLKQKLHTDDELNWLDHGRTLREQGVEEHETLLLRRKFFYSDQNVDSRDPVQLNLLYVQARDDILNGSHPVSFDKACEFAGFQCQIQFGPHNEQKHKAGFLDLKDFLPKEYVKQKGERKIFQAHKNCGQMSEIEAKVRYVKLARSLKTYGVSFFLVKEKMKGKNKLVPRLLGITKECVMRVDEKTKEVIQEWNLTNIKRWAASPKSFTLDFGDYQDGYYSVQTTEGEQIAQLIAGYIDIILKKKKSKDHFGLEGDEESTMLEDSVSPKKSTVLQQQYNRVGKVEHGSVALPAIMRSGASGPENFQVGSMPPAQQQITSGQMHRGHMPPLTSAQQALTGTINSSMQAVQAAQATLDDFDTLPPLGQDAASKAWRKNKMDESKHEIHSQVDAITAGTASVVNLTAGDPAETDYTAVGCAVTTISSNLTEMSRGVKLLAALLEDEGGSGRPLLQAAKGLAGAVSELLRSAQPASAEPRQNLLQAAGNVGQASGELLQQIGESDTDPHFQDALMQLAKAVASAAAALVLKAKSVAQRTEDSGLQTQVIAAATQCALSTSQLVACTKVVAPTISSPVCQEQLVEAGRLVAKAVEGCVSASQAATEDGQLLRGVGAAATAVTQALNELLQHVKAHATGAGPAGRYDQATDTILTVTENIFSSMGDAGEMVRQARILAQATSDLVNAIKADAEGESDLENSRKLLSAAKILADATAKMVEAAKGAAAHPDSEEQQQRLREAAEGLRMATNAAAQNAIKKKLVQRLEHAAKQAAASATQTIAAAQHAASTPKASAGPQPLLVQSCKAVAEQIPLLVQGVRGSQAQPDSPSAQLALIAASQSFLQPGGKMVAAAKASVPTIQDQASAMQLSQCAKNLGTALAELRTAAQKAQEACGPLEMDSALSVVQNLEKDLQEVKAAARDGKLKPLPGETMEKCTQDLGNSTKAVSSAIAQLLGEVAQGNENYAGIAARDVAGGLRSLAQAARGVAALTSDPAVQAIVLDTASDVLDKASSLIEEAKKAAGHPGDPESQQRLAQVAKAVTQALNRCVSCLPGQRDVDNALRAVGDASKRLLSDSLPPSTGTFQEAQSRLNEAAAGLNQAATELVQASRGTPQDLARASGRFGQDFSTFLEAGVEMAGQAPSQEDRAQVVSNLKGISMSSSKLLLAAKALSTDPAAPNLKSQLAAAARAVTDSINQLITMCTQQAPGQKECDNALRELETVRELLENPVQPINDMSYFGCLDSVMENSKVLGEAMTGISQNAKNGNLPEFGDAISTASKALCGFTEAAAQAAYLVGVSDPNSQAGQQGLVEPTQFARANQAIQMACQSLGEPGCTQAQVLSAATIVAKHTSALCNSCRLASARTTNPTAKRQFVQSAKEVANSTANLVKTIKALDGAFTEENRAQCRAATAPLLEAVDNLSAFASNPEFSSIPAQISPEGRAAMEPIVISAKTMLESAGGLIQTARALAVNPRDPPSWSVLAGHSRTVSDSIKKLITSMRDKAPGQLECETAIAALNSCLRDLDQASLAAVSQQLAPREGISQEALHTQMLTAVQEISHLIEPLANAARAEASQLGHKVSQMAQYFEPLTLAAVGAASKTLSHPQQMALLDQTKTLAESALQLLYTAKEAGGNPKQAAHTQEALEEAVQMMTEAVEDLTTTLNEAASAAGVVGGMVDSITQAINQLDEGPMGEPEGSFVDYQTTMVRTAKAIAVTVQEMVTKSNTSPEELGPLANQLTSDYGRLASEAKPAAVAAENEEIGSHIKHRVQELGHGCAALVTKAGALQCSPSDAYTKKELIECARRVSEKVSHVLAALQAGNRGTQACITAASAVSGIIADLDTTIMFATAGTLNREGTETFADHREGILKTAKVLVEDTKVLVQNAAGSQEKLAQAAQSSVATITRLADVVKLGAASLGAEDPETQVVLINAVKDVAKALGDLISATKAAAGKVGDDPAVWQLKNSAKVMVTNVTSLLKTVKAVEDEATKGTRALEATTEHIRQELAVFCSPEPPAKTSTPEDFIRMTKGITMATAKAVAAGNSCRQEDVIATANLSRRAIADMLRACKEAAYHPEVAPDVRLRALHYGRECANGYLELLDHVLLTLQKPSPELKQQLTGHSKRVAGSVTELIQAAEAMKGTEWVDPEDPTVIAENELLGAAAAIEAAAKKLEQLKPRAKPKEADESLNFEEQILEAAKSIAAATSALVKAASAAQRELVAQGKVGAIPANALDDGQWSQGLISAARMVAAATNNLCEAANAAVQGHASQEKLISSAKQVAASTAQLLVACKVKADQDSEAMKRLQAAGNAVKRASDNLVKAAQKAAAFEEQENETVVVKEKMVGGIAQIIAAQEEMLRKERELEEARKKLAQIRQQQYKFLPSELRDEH
UniProt Q53S58: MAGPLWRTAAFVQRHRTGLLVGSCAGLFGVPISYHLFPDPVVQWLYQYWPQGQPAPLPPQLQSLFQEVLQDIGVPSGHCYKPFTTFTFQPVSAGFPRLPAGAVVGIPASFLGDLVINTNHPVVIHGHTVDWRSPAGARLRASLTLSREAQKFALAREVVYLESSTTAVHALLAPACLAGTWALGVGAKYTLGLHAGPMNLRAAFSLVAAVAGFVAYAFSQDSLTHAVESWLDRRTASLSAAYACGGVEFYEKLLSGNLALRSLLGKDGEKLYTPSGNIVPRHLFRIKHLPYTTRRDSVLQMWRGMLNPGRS
UniProt Q9P2C4: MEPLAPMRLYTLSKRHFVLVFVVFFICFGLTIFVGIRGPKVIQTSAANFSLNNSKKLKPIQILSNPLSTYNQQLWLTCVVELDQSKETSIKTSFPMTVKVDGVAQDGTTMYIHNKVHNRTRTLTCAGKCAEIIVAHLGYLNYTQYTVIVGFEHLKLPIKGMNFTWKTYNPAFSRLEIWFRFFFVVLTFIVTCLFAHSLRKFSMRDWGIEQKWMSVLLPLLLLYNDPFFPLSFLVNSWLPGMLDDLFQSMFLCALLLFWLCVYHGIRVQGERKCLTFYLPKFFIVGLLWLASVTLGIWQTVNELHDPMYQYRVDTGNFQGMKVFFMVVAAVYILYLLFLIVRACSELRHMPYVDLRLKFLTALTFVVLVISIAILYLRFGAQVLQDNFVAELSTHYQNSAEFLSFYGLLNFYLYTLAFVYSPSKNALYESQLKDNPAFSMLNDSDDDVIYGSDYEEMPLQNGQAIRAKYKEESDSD

How the values were obtained:
Experiment in all cases: log2 fold change, soluble protein after heating vs DMSO (PISA); higher = thermal stabilisation; K562 lysate, 10 uM; active = over 0.2 and 3.5 SD of the protein, either way, in both replicates (recomputed)
[1] = compound: C#Cc1cccc(Nc2ncnc3cc(OCCOC)c(OCCOC)cc23)c1 [erlotinib]
Method in brief: (§1)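 Soluble protein was defined as the supernatant remaining after 21,000xg for 90 min, following pooling of heated aliquots and adjustment to 0.5% NP-40 at 4°C. Before that, crude K562 extract at 1 mg/mL protein in PBS pH 7.4 with 1 mM MgCl2 was treated with 10 μM compound for 30 min and heated for 3 min across 48°C-58°C. Quantification used TMTpro 16plex LC-MS/MS with channel sums equalised, and values are log-two fold changes in thermal stability relative to solvent controls from duplicates.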

[2] = compound: C/C(=N\NC(=O)C1=CC(=CC=C1)S(=O)(=O)N2CCOCC2)/C3=C(C=CC(=C3)Cl)O
Method in brief: as §1

[3] = compound: C1=CC(=CC=C1C2=NC3=C(N2)C=C(C=C3)C(=O)N)OC4=CC=C(C=C4)Cl
Method in brief: as §1

[4] = compound: C1=CC2=C(C=CC(=C2)/C=C\3/C(=O)NC(=NCC4=CC=CS4)S3)N=C1
Method in brief: as §1

[5] = compound: C1=CC=C2C(=C1)C3=NNC4=CC=CC(=C43)C2=O
Method in brief: as §1

[6] = compound: C1CCN(C1)C(=O)NC2=CC=CC(=C2)NC3=NC=C(C(=N3)NCCC4=CN=CN4)Br
Method in brief: as §1

[7] = compound: C1CN(CCC1(CC2=CC=C(C=C2)Cl)N)C3=NC=NC4=C3C=CN4
Method in brief: as §1

[8] = compound: CC(=O)c1cnc2ccc(-c3cc(Cl)c(O)c(Cl)c3)nc2c1N[C@H]1CC[C@H](CN(C)C)CC1
Method in brief: as §1

[9] = compound: CC(C)C1=C2N=C(C=C(N2N=C1)NCC3=CC=CC=C3)NCCCCCCN
Method in brief: as §1

[10] = compound: CC1=C(C2=C(C=C1)C(=O)C3=CC=CC=C3N2CCCN)C
Method in brief: as §1

[11] = compound: CC1=C(C=C(C=C1)NC(=O)C2=CC(=CC=C2)C(C)(C)C#N)NC3=CC4=C(C=C3)N=CN(C4=O)C
Method in brief: as §1

[12] = compound: CC1=CC=C(C=C1)SC2=C3C=C(SC3=CN=C2)C(=O)N
Method in brief: as §1

[13] = compound: C1=CC2=NC=CN=C2C=C1/C=C/3\C(=O)NC(=O)S3
Method in brief: as §1

[14] = compound: C1=CC=C(C=C1)C2=NC(=C(N2)C3=CC=NC=C3)C4=CC(=C(C=C4)Cl)O
Method in brief: as §1

[15] = compound: C1COCCN1CCN2C3=CC=CC=C3N=C2NC(=O)C4=CC(=CC=C4)[N+](=O)[O-] [IRAK-1-4 Inhibitor I]
Method in brief: as §1

[16] = compound: C=CC(=O)N1CCC[C@@H](n2nc(-c3ccc(Oc4ccccc4)cc3)c3c(N)ncnc32)C1 [ibrutinib]
Method in brief: as §1

[17] = compound: CC(C)(C)Cn1c(N)nc2ccc(-c3[nH]c(C(C)(C)C)nc3-c3ccc(F)cc3)nc21 [ralimetinib]
Method in brief: as §1

[18] = compound: CC(C)(O)CC(=O)NCCn1ccc2ncnc(Nc3ccc(Oc4cccc(C(F)(F)F)c4)c(Cl)c3)c21
Method in brief: as §1

[19] = compound: CC1=C(C(CC(=O)N1)C2=CC=C(C=C2)C(F)(F)F)C(=O)NC3=C(C=C4C(=C3)C=NN4)F
Method in brief: as §1

[20] = compound: CC1=C(C=C(C=C1)NC(=O)C2=CC(=CC=C2)N(C)C)NC(=O)C3=CC=C(C=C3)O
Method in brief: as §1

Measured: log2 fold change

TMEM120B (UniProt A0PK00)
inactive: [1] 0.095 | [2] 0.068 | [3] -0.139 | [4] 0.136 | [5] -0.02 | [6] -0.07 | [7] -0.005 | [8] 0.039 | [9] -0.108 | [10] 0.047 | [11] 0.137 | [12] -0.106

TMEM135 (UniProt Q86UB9)
inactive: [1] 0.03 | [2] -0.186 | [3] -0.015 | [4] 0.171 | [13] 0.015 | [14] -0.069 | [5] -0.217 | [6] 0 | [7] -0.005 | [15] 0.057 | [16] 0.037 | [8] 0.022 | [17] 0.028 | [18] 0.082 | [9] 0.011 | [19] 0.011 | [10] 0.028 | [11] -0.04 | [20] 0.06 | [12] 0.013

TMEM168 (UniProt Q9H0V1)
inactive: [1] 0.013 | [2] 0.049 | [3] 0.021 | [4] -0.052 | [13] -0.023 | [14] -0.027 | [5] 0.25 | [6] 0.054 | [7] 0.046 | [15] 0.042 | [16] 0.089 | [8] -0.019 | [17] 0.026 | [18] -0.01 | [9] -0.032 | [19] 0.077 | [10] -0.076 | [11] 0.044 | [20] -0.025 | [12] 0.006

TIMM17B (UniProt O60830)
inactive: [1] 0.035 | [2] 0.02 | [3] 0.102 | [4] 0.026 | [13] 0 | [14] -0.02 | [5] -0.031 | [6] -0.058 | [7] 0.011 | [15] -0.001 | [16] -0.011 | [8] 0.001 | [17] -0.043 | [18] -0.022 | [9] -0.02 | [19] -0.006 | [10] -0.071 | [11] 0.003 | [20] 0.005 | [12] -0.039

TM7SF3 (UniProt Q9NS93)
inactive: [1] 0.03 | [2] 0.014 | [3] 0.046 | [4] 0.063 | [13] -0.008 | [14] 0.01 | [5] -0.094 | [6] 0.131 | [7] 0.109 | [15] 0.016 | [16] -0.012 | [17] 0 | [18] -0.051 | [9] -0.079 | [10] -0.013 | [11] 0.047 | [20] 0.123

TM9SF1 (UniProt O15321)
inactive: [1] 0.021 | [2] 0.058 | [3] 0.049 | [4] -0.037 | [13] 0.192 | [14] -0.006 | [5] -0.044 | [6] 0.038 | [7] -0.005 | [15] 0.031 | [16] 0.088 | [8] 0.041 | [17] -0.03 | [18] 0.05 | [9] -0.026 | [19] -0.009 | [10] 0.028 | [11] -0.013 | [20] -0.007 | [12] 0.055

TLN2 (UniProt Q9Y4G6)
inactive: [1] -0.015 | [2] -0.038 | [3] 0.018 | [4] -0.01 | [13] -0.021 | [14] 0.007 | [5] 0.036 | [6] 0 | [7] 0.012 | [15] -0.004 | [16] -0.016 | [8] -0.018 | [17] 0.002 | [18] -0.009 | [9] 0.004 | [19] -0.049 | [10] -0.001 | [11] 0.008 | [20] -0.002 | [12] 0

THG1L (UniProt Q9NWX6)
inactive: [1] 0.009 | [2] 0.012 | [3] 0.051 | [4] 0.021 | [13] -0.004 | [14] -0.02 | [5] 0.012 | [6] -0.01 | [7] 0.055 | [15] -0.014 | [16] -0.002 | [8] 0.009 | [17] -0.033 | [18] 0.039 | [9] -0.001 | [19] -0.02 | [10] -0.006 | [11] -0.009 | [20] 0.007 | [12] 0.011

TK1 (UniProt P04183)
inactive: [1] 0.003 | [2] -0.112 | [3] 0.036 | [4] -0.001 | [13] 0.028 | [14] -0.003 | [5] 0.021 | [6] 0.013 | [7] 0.017 | [15] 0.008 | [16] 0.004 | [8] -0.004 | [17] 0.023 | [18] -0.022 | [9] -0.029 | [19] 0 | [10] 0.006 | [11] 0.046 | [20] -0.014 | [12] -0.006

TMEM138 (UniProt Q9NPI0)
inactive: [1] -0.216 | [2] -0.164 | [3] 0.074 | [4] 0.007 | [5] 0.034 | [6] -0.179 | [7] 0.017 | [9] -0.017 | [10] -0.129

TMC1 (UniProt Q8TDI8)
inactive: [1] -0.028 | [2] -0.001 | [3] -0.007 | [4] 0.013 | [14] -0.072 | [5] -0.071 | [6] -0.148 | [7] -0.081 | [15] 0.099 | [8] -0.016 | [17] 0.156 | [18] -0.185 | [9] 0.204 | [19] -0.034 | [11] -0.104 | [20] 0.017 | [12] -0.045

Retrieved one by one from the list above (2):
THG1L (UniProt Q9NWX6)
inactive: [1] 0.009 | [2] 0.012 | [3] 0.051 | [4] 0.021 | [13] -0.004 | [14] -0.02 | [5] 0.012 | [6] -0.01 | [7] 0.055 | [15] -0.014 | [16] -0.002 | [8] 0.009 | [17] -0.033 | [18] 0.039 | [9] -0.001 | [19] -0.02 | [10] -0.006 | [11] -0.009 | [20] 0.007 | [12] 0.011

TMC1 (UniProt Q8TDI8)
inactive: [1] -0.028 | [2] -0.001 | [3] -0.007 | [4] 0.013 | [14] -0.072 | [5] -0.071 | [6] -0.148 | [7] -0.081 | [15] 0.099 | [8] -0.016 | [17] 0.156 | [18] -0.185 | [9] 0.204 | [19] -0.034 | [11] -0.104 | [20] 0.017 | [12] -0.045

Going on with the list:

TJP1 (UniProt G3V1L9)
inactive: [1] 0.169 | [2] 0.199 | [3] 0.087 | [4] -0.119 | [13] -0.068 | [14] 0.014 | [5] 0.063 | [15] 0.047 | [16] 0.024 | [17] 0.075 | [18] -0.014 | [9] -0.025 | [19] -0.041 | [10] 0.022 | [11] -0.017 | [20] -0.041

TK2 isoform 6 (UniProt O00142)
inactive: [1] 0.081 | [2] 0.051 | [3] 0.027 | [4] -0.001 | [13] 0 | [14] 0.083 | [5] -0.013 | [6] 0.096 | [7] -0.113 | [15] 0.111 | [16] -0.192 | [8] 0.072 | [17] -0.164 | [18] -0.174 | [9] -0.097 | [10] -0.051 | [11] 0.061 | [20] 0.078 | [12] 0.053

TLN1 (UniProt Q9Y490)
inactive: [1] -0.008 | [2] 0.002 | [3] -0.001 | [4] -0.005 | [13] -0.018 | [14] 0 | [5] 0.02 | [6] -0.002 | [7] -0.009 | [15] -0.004 | [16] 0.012 | [8] 0 | [17] -0.004 | [18] 0.012 | [9] -0.006 | [19] -0.01 | [10] 0.015 | [11] 0.02 | [20] 0.001 | [12] 0.016

TMEM177 (UniProt Q53S58)
inactive: [1] 0.042 | [2] 0.06 | [3] -0.042 | [4] 0.016 | [13] -0.019 | [14] -0.054 | [5] 0.148 | [6] 0.019 | [7] 0.005 | [15] 0 | [16] 0.079 | [8] -0.022 | [17] -0.287 | [9] 0.007 | [11] -0.03 | [20] 0.032 | [12] -0.005
active: [18] -0.311

TMEM165 (UniProt Q9HC07)
inactive: [1] 0 | [2] 0.084 | [3] 0.018 | [4] 0.038 | [13] -0.043 | [14] 0.01 | [5] 0.066 | [6] -0.007 | [7] 0.037 | [15] -0.001 | [16] 0.023 | [8] 0 | [17] -0.008 | [18] 0.017 | [9] 0.042 | [19] -0.042 | [10] -0.036 | [11] 0.034 | [20] 0.019 | [12] 0.001

TMEM167B (UniProt Q9NRX6)
inactive: [1] -0.061 | [2] -0.016 | [3] -0.006 | [4] -0.042 | [13] -0.044 | [14] -0.002 | [5] 0.013 | [6] -0.056 | [7] 0.036 | [15] -0.014 | [16] 0.019 | [8] -0.02 | [17] 0.015 | [18] 0.001 | [9] -0.02 | [19] -0.058 | [11] 0.021 | [20] 0.035 | [12] -0.033

TMEM181 (UniProt Q9P2C4)
inactive: [1] 0.015 | [2] -0.172 | [3] 0.065 | [4] -0.184 | [13] 0.018 | [14] -0.015 | [5] -0.043 | [6] 0.03 | [7] 0.005 | [15] -0.042 | [16] -0.014 | [8] -0.078 | [17] -0.044 | [18] 0.003 | [9] -0.034 | [10] -0.037 | [11] 0.036 | [20] 0.056 | [12] -0.096
